The experiment deals with FABP3-mouse-3×FLAG (fatty acid binding protein 3) (mouse) (UniProt P11404). Put plainly: co-IP; 3T3-L1 cells transfected for 48 h with the 3×FLAG vector or empty vector; lysate with 20 μl anti-FLAG magnetic beads at 4°C overnight, three to five washes with lysis buffer; Western blot.

Protein sequences, listed by entry. Tags and fused reporters are not part of them.
UniProt P11404: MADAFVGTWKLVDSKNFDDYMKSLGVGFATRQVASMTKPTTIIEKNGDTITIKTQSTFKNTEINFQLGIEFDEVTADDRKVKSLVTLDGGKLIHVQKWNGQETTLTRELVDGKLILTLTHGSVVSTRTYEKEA
UniProt Q99JI1: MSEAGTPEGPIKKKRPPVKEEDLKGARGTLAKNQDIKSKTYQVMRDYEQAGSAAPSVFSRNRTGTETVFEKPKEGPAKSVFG

No constants are given. Whether binding was seen depends on the method and setting. Binding seen in cells or lysates may run through a third protein. Some entries that bind do so weakly or less than the wild type.

For the substance “Musculoskeletal embryonic nuclear protein 1 (MUSTN1) in 3T3-L1 cells (from UniProt Q99JI1 1-82)”, the binding result is on record as “binds”.

(Values after PMC12139245.)
